PubChem BioAssay AID1259260 – Sanger Institute – 2017

- Aim: 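Kinases whose knock-down kills colorectal cancer cells or boosts drug effects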 (primary screen)
- System: human NCI-H716 colorectal cancer cells
- Reagent: siRNA pool against human genes
- Challenge: anchor drugs BYL719 (alpelisib) 1 µM, cetuximab 5 µg/ml or trametinib 10 nM, each at a dose chosen to harm viability only mildly; DMSO vehicle for the knock-down-alone arm
- Read-out: 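Replicate-averaged viability relative to a non-targeting pool, a robust z-score for knock-down alone, and a synergy score per anchor drug versus each agent alone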
- Direction: viability robust z-score, siRNA alone: higher = more surviving cells; below -3 called essential; viability vs control, no drug: higher = more surviving cells; synergy score with BYL719 and synergy score with cetuximab and synergy score with trametinib: higher = stronger synergy (synthetic lethality) with drug
- Active means: 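Essential when the robust z-score for knock-down alone falls below -3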
- Calls: active = essential (knock-down alone lowers viability); inactive = no essential effect
This is an unselected part of 794 reagents tested. In the full data, 13 (1.6%) are marked active. 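Calls reflect only knock-down without drug; synergy above 0.15 was grouped apart and does not change the call.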 Entries without a mark were called inactive. No viability above 1 is reported: the scale is capped. No sequences are given here. The record does not give: the amount of reagent, the time to read-out.

| target | viability robust z-score, siRNA alone | viability vs control, no drug (fraction of control) | synergy score with BYL719 | synergy score with cetuximab | synergy score with trametinib |
| --- | --- | --- | --- | --- | --- |
| PANK3 (pantothenate kinase 3) | 0.602 | 1 | -0.0356 | -0.0377 | 0.133 |
| COQ8B (coenzyme Q8B) | 0.602 | 1 | -0.112 | 0.023 | -0.071 |
| CDKN1A (cyclin dependent kinase inhibitor 1A) | 0.269 | 0.965 | -0.181 | -0.0106 | -0.0637 |
| PSTK (phosphoseryl-tRNA kinase) | 0.602 | 1 | -0.142 | -0.1 | -0.195 |
| PRKACB (protein kinase cAMP-activated catalytic subunit beta) | 0.602 | 1 | -0.244 | -0.1 | -0.0586 |
| CAMKK2 (calcium/calmodulin dependent protein kinase kinase 2) | 0.602 | 1 | -0.0429 | -0.1 | 0.0736 |
| PHKB (phosphorylase kinase regulatory subunit beta) | -0.913 | 0.843 | -0.082 | -0.036 | 0.221 |
| FN1 (fibronectin 1) | 0.602 | 1 | -0.265 | -0.1 | -0.0567 |
| NAGK (N-acetylglucosamine kinase) | -0.592 | 0.876 | -0.211 | -0.0874 | -0.223 |
| FBXW7 (F-box and WD repeat domain containing 7) | 0.602 | 1 | -0.0578 | 0.046 | 0.0347 |
| BMP2K (BMP2 inducible kinase) | -1.87 | 0.743 | -0.178 | -0.323 | -0.0664 |
| SYK (spleen associated tyrosine kinase) | -1.85 | 0.745 | -0.0918 | -0.33 | 0.217 |
| MAP4K2 (mitogen-activated protein kinase kinase kinase kinase 2) | 0.474 | 0.987 | -0.108 | -0.112 | -0.0619 |
| STK32B (serine/threonine kinase 32B) | 0.208 | 0.959 | -0.141 | -0.137 | 0.0879 |
| TP53 (tumor protein p53) | 0.602 | 1 | -0.24 | -0.1 | -0.0399 |
| MATK (megakaryocyte-associated tyrosine kinase) | -1.56 | 0.775 | -0.239 | -0.214 | -0.0428 |
| TTBK2 (tau tubulin kinase 2) | -1.75 | 0.755 | -0.181 | -0.154 | -0.0303 |
| JAK1 (Janus kinase 1) | 0.602 | 1 | -0.141 | -0.1 | 0.127 |
| PRKG2 (protein kinase cGMP-dependent 2) | 0.602 | 1 | -0.0153 | -0.1 | 0.106 |
| PDK4 (pyruvate dehydrogenase kinase 4) | 0.602 | 1 | -0.141 | -0.1 | -0.0782 |
